Median seed-adjusted z-score data for 108 sequences are collected here from PubChem BioAssay AID1347426 (Functional Genomics Laboratory (NCATS/FGL), 2020).

The campaign covered roughly 31,000 sequences. About 1,400 (4.5%) were called active.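 How the source made its calls: active means median seed-adjusted z-score above 1 or below -1; inactive means the rest.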 This is one part of the list.

A short description of the experiment: Novel Modifiers of Survival Motor Neuron (SMN) Protein: Gene Identification via Genome-wide siRNA Screen.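 Further: luminescence tracks full-length SMN protein made from the SMN2 reporter.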 To be noted: HEK293T SMN2-luciferase reporter, siRNA knockdown, 72 h; actives lie on both sides. The procedure, abridged: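 HEK293T cells stably expressing an SMN2 splicing/cDNA-luciferase reporter were reverse-transfected with a druggable-genome siRNA library and read by luminescence at 72 hours; hits defined by MAD score above 1.0 or below -1.0.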
In general terms: A reporter such as luciferase makes a cellular process visible.
Turning to GCAUCGUUUUCAGUGCCGATT against GRM5, the median seed-adjusted z-score is inactive: -0.227.
With CAGAAAUGCUAGCCCUUCATT against GPR68, the median seed-adjusted z-score was inactive: -0.0233.
For GACCGGCCGUUCAGAAUGATT against RPUSD1 the value was inactive: 0.327.
For CAGCGUAACGUGAACAUAUTT against LDHA the value was inactive: 0.401.
For GCCGUCCACUUGAAGAUCATT against BNC1 the value was inactive: -0.631.
For GAACUACACUGCGAGCUUUTT against RND2, the median seed-adjusted z-score is inactive: -0.0613.
For GCUCUUAUCUUUUGUCCAATT against SNRNP40 the value was inactive: 0.677.
As for GUGCAUCAACUAUACCGAUTT against SCN10A, the median seed-adjusted z-score was inactive: -0.401.
For GCCCAGAAGGGUUACGAAATT against GNPTAB the value was inactive: 0.296; for ACCCAGAUCUCUACCUGAATT against TACR1, inactive: -0.391; for UAAGGUUUCUAAUCAACAATT against ZNF137, inactive: 0.0526.
Under GCAACAACAAAAUCGCACATT against VN1R4 stands inactive: -0.0601; under GCUGUAUAUUGGAUUAGAATT against CDC16, inactive: 0.106; under CGCAUUUACGGAUAUCCUATT against CASR, inactive: 0.111.
As to CCAUCAACAUCGCCCUGAATT against PLOD1, the median seed-adjusted z-score was inactive: 0.481.
Under CCAUUAACGAGCUGCUUAATT against PLK1 stands active: -2.57.
For GCUGAUGUUUGAUAAAACUTT against MSI2 the value was inactive: 0.582; for GGAGGAUUCCAAACCGAUATT against XPNPEP3, inactive: -0.282; for GCAGCAUUGUGGAUGUGGATT against LPCAT4, inactive: 0.338.
For CCGACUACGUCAUUCCAGCTT against P2RX5, the median seed-adjusted z-score is inactive: 0.313.
For GGAACUUAAGCAGCCGUUATT against EVI1 the value was inactive: 0; for CUGUCUUCCUUAUAGGGUUTT against OPN1SW, inactive: 0.32.
Under GAGUCUAUGAGGACAAUAATT against SPTLC3 stands inactive: 0.279; under CGGCGAUGCAAAAACCAAATT against RNASE2, inactive: 0.283; under AGAACUUUGUGCACCGUGATT against ZAP70, inactive: -0.674.
Under CAACAAGUGGGAAACGAUATT against CPB1 stands inactive: -0.376.
Regarding CGAUAUGGAAAAUCCCUAUTT against ANXA10, the median seed-adjusted z-score was inactive: 0.0445.
For CGUGCUAUUUAUCAUCACATT against UGT2B10 the value was inactive: 0.989; for GGAAGAACAUAUACUAUAATT against MAOA, inactive: 0.665; for CAUUAAUGGUUAGAGUUAATT against PCDHGB6, inactive: 0.34.
For CCUAUUCCCGAAGCCGUUATT against PLAUR the value was inactive: -0.118; for GGAUCUAUCCAGAUGAAUATT against ZNF300, inactive: -0.302.
For CGUAUACCCUGGUGGUUCATT against CDH1 the value was inactive: -0.24.
For GGAUACUUCAGGACUAGAATT against PNN, the median seed-adjusted z-score was active: 1.29.
Under CCAUCUGCUUUCCCGAGUATT against GNAZ stands inactive: -0.604; under GAAAUGCUUUCAGAACAGATT against ZNF641, inactive: 0.233.
On to CCAUCACCGUUGAUGACAATT against JAK1, for which the median seed-adjusted z-score was inactive: 0.0199.
As to GCUCAAGGCAUUCUACAAATT against SLC25A1, the median seed-adjusted z-score was inactive: 0.252.
Under GCUACACGCUGAACGAGCATT against ZNF517 stands inactive: 0.0158; under GACUGACAUUGAGAUUACATT against CCT3, inactive: -0.416; under CCGUCAGAAUUCUACAAUUTT against KCNQ3, inactive: 0.313.
For AGAUGAAUGUCAAGAUGCUTT against MYL4 the value was inactive: -0.388; for GGGCUGAUGUUAUCAACUUTT against CNTNAP2, inactive: -0.196.
For GCGACUUUCUUGGUUUGCATT against SNX2 the value was inactive: -0.569.
As to CAUGAACGGCUGUUACUCATT against ID1, the median seed-adjusted z-score is inactive: 0.
Under GCUGCGUCUCCCUUCCAAATT against GP1BB stands inactive: -0.711; under GCCUGACCAUCUCCAUUGUTT against USH1C, inactive: -0.164; under GGAUCUCACCCAGUACUGATT against DMRTC2, inactive: 0.
For the sequence CAGAUGUGGUGAUGCGUGATT against DMBX1, the median seed-adjusted z-score was inactive: -0.207.
Under GCAUGGACGGGUAUGUUGATT against FAM12B stands inactive: 0.312.
Take GAGUGUUGCGUGGAUGUAATT against DUSP5: the median seed-adjusted z-score is inactive: 0.324.
Under CAAUCAGGCUGAUAUUGCATT against PIGN stands inactive: 0.215; under UCGACUCCCUGAGCAUUGATT against SARDH, inactive: -0.195.
Turning to CUGAUGAUCUACUCAUAUATT against TEKT1, the median seed-adjusted z-score was inactive: 0.222.
Under CAUCCAGCAUACAAAAGAATT against FCRL3 stands inactive: -0.642; under GGUUGGUGAUGUCAAGUAUTT against CDKL2, inactive: -0.293; under CCCGGACCUUCAUCACCAUTT against MAP2K3, inactive: 0.365.
For GAUGAUGCUUUGUCAGACATT against TRIB1 the value was inactive: 0; for GGAACGGGCUGGAGUUAAATT against FUBP1, active: -1.52; for CGAUUACGGCUGGUACAAUTT against GPR137, inactive: 0.564.
For CUAUCGUAAGCUUCGAAAATT against IQGAP2 the value was inactive: 0.194; for ACAUGUCUGACAUCACCAATT against NAT8B, inactive: 0.206.
As for UUACUUCUGUGGAAUACAATT against SLC25A41, the median seed-adjusted z-score is inactive: 0.0703.
Under CCUGUGAUCCGCCCAAUUATT against RBM42 stands inactive: 0; under UCCAGCAAGUGGCCAAGAATT against DUPD1, inactive: -0.406.
As to CGGUGACACUACUGCAUGATT against KIF1A, the median seed-adjusted z-score is inactive: 0.318.
For GCCCUGAUCUUCUACUACUTT against P2RY1 the value was inactive: -0.844; for CGACCCUUGAAGUUCAAUATT against EFTUD2, active: -1.25.
For GAUCGUAUCAUAUACUCGATT against MMP7 the value was inactive: 0.0315; for GACUAUUCCUCUUUGUAUATT against BHLHB3, inactive: -0.00972.
Turning to GCAAGAUUGUCAUUGACUUTT against DCTD, the median seed-adjusted z-score is inactive: 0.
For GGAGCUCAGUGUAUCGUCATT against SLIT2 the value was inactive: -0.592; for CCAACAUCGAGAACAACAATT against PARP3, inactive: -0.0383.
Consider CGGACCCAGUAUGAACUGATT against KRT77, for which the median seed-adjusted z-score is inactive: -0.0863.
Under GCAGGGACAUGUUCAACCATT against SPRED2 stands inactive: -0.749.
In the case of UGAUGGAGCUGCUACCAGATT against ADPRH, the median seed-adjusted z-score was inactive: -0.406.
For GCACCUCACUCAUCAUGCATT against CYP26B1 the value was inactive: -0.213; for GGAGUGAGAUUGAUCUGUUTT against ANXA5, inactive: 0.268; for GGAUUUUUGAUUUUCCGAATT against TUBAL3, active: 1.05.
Under GGAUCUACAAAUGUCCGAATT against PROSC stands inactive: 0.173; under GCCUAAGGCUCAUCACCAUTT against CNTNAP3, inactive: 0.15.
As to CCAAGGUUUUAAGCGAUGATT against THADA, the median seed-adjusted z-score was inactive: 0.00995.
With CAUCAGGUAUACUAGGGAATT against ERAS, the median seed-adjusted z-score was inactive: 0.289.
For GUAAUGGAACAGCAAGUAATT against MAP2K5 the value was inactive: 0.986; for CCAAGUCGGUGGUUGUGAATT against P2RX3, inactive: -0.44; for CCACGGGUAAAGAAGUUAATT against MKL2, inactive: -0.863.
Under CGACUUGAGCGAAGUUUUATT against ZFP36L1 stands inactive: -0.933.
Under ACAACUGUCUGGACCCGUUTT against P2RY8 stands inactive: -0.136.
As for GGCACAGAAAUUAAAGGAATT against FANCA, the median seed-adjusted z-score is inactive: 0.418.
Turning to GAAUGAUUUUCCAAAUGGATT against SLC25A21, the median seed-adjusted z-score is inactive: -0.219.
Under CCAGCUUCACUACACGGUATT against PCDH10 stands inactive: -0.488; under GUCAGAUACAUGAACCAGATT against JMJD1A, inactive: 0.466.
Under AGAUGGGACGGGUCACUAUTT against GATA4 stands inactive: -0.24.
Under GAGAAUAACCUAUAUGGAATT against PDHA2 stands inactive: 0.118; under GUUUGUGACUGUAACCAUUTT against CTBP1, inactive: 0.105.
As to GUAUGUUACCUGGAAACUATT against LDHB, the median seed-adjusted z-score is inactive: -0.515.
In the case of CGGCGUGAGGAUUACCAAATT against HOMEZ, the median seed-adjusted z-score was inactive: -0.0614.
For CGUUCGUAUUUAUAUUAAATT against HOXA3 the value was inactive: 0.315; for UCCGCAAACUCAACCCUUUTT against EHD2, inactive: 0.0989; for AGCUGGUUCCCGUUUUCCATT against HRK, inactive: 0.217.
For AGACGUAUCUUGACAUCUUTT against CENTB1 the value was inactive: -0.239; for CUGUUCCCGUAGACAAAGATT against SRP68, inactive: 0.721.
Under GCUCAUUCAUCAGAGGGAATT against DZIP1L stands inactive: 0.203; under GUGUGAAGGCUGAAGAAGATT against RALB, inactive: -0.534.
With GGGUAUUGAUCAGUCCAUUTT against CETP, the median seed-adjusted z-score is inactive: 0.
Under GGGCAAUUUCAGAAACGCATT against CATSPER1 stands inactive: 0.655; under GCUCGUCGAGGUUACUACATT against PPIL1, inactive: 0.166.
For GCCCUGAUCCCUACGAGAATT against CACNA1H the value was inactive: -0.147.
